# Measured values as given in publication PMC10163288.
# The other results are listed elsewhere or left out.
# B1: il2ra_site1_3nfp_sap_8_mot_93ec910cbd4ebb8dd092c1ac1e61ab37_0001_1_af2_000000101_0001_16_31_H_._22fa1065b69cf192845a0250a7ccff51_0001_1_0001_0000400021_0000001_ … (protein)
# chain: SSSSDSVEWLQEMIERAFENNDRRQLRVLIKILEKAAEQFGDPEVEKLLEEAERLLEELNSSSSS
# B2: il2ra_site1_3nfp_sap_18_mot_HHH_b2_00162_af2_000000036_0001_22_38_H_._28c41ff5ff93e4e540bfc34eab8aed47_0001_af2_0001_0000300023_0000001_0_0001 (protein)
# chain: SSSSDREAFELAEEVYEVIKEGDEERVRELLEELRKWVEEEGDKVDEYFLRMLEQAAERQFSSSS
# B3: il2ra_site1_1z92_sap_17_mot_HHH_b2_04325_000000036_0001_39_52_H_._ad6fc7cc688aee799991fbcb742478cf_0001_1_af2_0001_0000900052_0000001_0_0001 (protein)
# chain: SSSSDARERIEELAEFLHRDARKTNNEWALRLLEALLRKARKLGDEELEERIEELIERLKSSSSS
# B4: il2ra_site2_3nfp_sap_19_mot_HHH_b2_04230_000000235_0001_39_52_H_._771ca5fb7044fd74913a74cac1256c5f_0001_0001_0000400024_0000001_0_0001 (protein)
# chain: SSSSDEEEREVEELLEEAKKISDEEERRKVLAKAAHIAWEARNPELFFLVAEVLTELIQKSSSSS
# B5: il2ra_site2_2erj_sap_10_mot_HHH_b2_07568_000000046_0001_18_34_H_._HHH_b1_08658_0001_0000400009_0000001_0_0001 (protein)
# chain: SSSSSSDIHERVREEFEEAAERNDLHALYEIANRLTHLASKLNDPELLELARELVERASSSSSSS
# B6: il2ra_site2_3nfp_normal_mot_HHH_b1_04781_af2_000000057_0001_1_18_H_._3b61d7363a4279ee81a7dec5202e1ad9_0001_af2_0001_0000100003_0000001_0 (protein)
# chain: DAVEEAIHNIERKDEELSELLEEVLRLIEEKKDPELQLLLYAAIVAVYRGNPEEAKEILKEALER
# B7: il2ra_site2_2erj_normal_mot_HHH_b1_03464_000000177_0001_1_14_H_._HHH_b1_07054_0001_0000500044_0000001_1_af2pred_0001_1_af2pred_swapped (protein)
# chain: SSSSDVEERIQELLEEAEEILEKHKDPQKAFLVVQEAAFLAARNRNDELLKEVMELAQRINSSSS
# B8: il2ra_site1_3nfp_sap_14_mot_HHH_b2_04095_af2_000000160_0001_43_56_H_._HHH_b2_03688_af2_0001_0000300040_0000001_1_0001_af2pred_0001_af2pred_1 (protein)
# chain: SSSSTRKSRELIESAEELAERLNDPETLRELEELRERYEEEGDQRLLQRVFELLAELLRRFSSSS
# B9: il2ra_site2_2erj_normal_mot_HHH_b2_08028_000000126_0001_18_34_H_._HHH_b2_03584_af2_0001_0001800033_0000001_1 (protein)
# chain: SSSSDLEELLEEAERLLEEGDPEEAHRVLSRAFELAYENRDEELAARLAKLFEEIARYEGSSSSS
# B10: il2ra_site2_2erj_normal_mot_HHH_b1_04373_af2_000000118_0001_18_33_H_._HHH_b2_07966_af2_0001_0000200008_0000001_0 (protein)
# chain: SSSSDTEEEVREVLEEAKEAWEEGDLEQVYRLAVRALRIASENRDEEAQRLVLKWLEELVSSSSS
# Target: il2ra, P01589
# Experiment: yeast display titration
row,Binder,apparent Kd
1,B1,inactive: no binding seen
2,B2,inactive: no binding seen
3,B3,inactive: no binding seen
4,B4,inactive: no binding seen
5,B5,inactive: no binding seen
6,B6,inactive: no binding seen
7,B7,inactive: no binding seen
8,B8,inactive: no binding seen
9,B9,inactive: no binding seen
10,B10,inactive: no binding seen

# Part of the list above, reformatted:
row | Binder | apparent Kd
8 | B8 | inactive: no binding seen
9 | B9 | inactive: no binding seen
